From the supplement of paper PMC6411743
± gives the standard deviation of the averaged measurements. The list shows a part of the results, in another mix than the full data.

By UniProt entry, the sequences of proteins in these tests, tags left out. Where a name states a change or a piece, a line headed by the entry shows the natural chain unless it says otherwise.
UniProt O75879: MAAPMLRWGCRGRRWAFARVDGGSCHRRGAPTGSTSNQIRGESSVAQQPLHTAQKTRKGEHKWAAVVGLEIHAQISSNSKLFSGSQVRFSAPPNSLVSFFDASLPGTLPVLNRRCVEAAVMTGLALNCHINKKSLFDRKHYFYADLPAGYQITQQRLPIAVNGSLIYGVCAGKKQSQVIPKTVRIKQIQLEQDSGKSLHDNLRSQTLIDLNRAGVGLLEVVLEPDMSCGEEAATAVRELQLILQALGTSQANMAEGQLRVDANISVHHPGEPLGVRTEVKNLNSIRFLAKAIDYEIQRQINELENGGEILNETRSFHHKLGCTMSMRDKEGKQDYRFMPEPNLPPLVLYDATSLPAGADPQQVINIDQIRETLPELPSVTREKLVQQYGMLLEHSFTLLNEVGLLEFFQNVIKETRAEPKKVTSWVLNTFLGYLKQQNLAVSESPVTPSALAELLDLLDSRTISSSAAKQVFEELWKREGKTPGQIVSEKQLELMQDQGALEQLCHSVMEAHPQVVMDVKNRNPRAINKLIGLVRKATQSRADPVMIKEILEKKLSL
UniProt Q13724: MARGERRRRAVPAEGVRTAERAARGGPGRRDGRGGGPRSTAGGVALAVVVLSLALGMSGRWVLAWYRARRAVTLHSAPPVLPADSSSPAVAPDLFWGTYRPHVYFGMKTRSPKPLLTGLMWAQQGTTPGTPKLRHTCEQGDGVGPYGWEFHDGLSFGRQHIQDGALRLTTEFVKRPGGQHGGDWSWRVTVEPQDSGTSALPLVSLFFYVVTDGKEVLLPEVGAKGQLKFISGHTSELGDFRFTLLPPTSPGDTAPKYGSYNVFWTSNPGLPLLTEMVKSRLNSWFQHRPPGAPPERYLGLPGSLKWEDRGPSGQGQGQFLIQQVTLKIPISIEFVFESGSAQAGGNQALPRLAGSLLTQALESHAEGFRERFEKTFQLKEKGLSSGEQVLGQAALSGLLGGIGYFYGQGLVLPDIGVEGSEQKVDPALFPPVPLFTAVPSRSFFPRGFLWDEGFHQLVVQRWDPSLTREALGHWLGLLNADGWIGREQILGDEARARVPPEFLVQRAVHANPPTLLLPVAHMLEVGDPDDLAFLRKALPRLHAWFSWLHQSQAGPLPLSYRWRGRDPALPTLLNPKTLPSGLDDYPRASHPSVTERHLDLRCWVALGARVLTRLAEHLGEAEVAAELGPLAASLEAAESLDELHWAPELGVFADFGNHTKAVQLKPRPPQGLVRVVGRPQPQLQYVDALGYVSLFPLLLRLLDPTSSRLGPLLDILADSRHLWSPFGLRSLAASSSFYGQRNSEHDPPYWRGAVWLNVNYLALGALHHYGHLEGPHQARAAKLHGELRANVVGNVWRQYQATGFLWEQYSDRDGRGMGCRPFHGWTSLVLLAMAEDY
UniProt O00244: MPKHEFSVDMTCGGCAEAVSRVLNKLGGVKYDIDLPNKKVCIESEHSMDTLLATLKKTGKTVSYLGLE
UniProt O00541, whole entry: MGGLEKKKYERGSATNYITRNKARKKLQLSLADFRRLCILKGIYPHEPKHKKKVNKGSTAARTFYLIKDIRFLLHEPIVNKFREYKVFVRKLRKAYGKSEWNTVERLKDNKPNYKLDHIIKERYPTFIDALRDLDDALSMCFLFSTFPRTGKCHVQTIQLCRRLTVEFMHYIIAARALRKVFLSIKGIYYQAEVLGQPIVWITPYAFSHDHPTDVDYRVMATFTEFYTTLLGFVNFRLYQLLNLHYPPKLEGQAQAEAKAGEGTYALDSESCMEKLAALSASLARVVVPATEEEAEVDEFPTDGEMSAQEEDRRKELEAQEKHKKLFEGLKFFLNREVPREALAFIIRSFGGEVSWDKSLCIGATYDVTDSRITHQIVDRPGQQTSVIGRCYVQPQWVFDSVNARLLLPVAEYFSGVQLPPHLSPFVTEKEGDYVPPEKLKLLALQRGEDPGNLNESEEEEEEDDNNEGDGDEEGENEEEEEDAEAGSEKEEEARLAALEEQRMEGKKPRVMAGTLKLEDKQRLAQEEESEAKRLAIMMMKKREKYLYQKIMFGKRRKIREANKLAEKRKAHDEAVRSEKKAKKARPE
UniProt P35080, whole entry: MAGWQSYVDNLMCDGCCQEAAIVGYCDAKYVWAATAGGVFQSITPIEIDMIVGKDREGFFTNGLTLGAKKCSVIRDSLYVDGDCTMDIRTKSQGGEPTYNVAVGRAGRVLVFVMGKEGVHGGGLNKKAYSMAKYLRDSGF
UniProt Q32P44: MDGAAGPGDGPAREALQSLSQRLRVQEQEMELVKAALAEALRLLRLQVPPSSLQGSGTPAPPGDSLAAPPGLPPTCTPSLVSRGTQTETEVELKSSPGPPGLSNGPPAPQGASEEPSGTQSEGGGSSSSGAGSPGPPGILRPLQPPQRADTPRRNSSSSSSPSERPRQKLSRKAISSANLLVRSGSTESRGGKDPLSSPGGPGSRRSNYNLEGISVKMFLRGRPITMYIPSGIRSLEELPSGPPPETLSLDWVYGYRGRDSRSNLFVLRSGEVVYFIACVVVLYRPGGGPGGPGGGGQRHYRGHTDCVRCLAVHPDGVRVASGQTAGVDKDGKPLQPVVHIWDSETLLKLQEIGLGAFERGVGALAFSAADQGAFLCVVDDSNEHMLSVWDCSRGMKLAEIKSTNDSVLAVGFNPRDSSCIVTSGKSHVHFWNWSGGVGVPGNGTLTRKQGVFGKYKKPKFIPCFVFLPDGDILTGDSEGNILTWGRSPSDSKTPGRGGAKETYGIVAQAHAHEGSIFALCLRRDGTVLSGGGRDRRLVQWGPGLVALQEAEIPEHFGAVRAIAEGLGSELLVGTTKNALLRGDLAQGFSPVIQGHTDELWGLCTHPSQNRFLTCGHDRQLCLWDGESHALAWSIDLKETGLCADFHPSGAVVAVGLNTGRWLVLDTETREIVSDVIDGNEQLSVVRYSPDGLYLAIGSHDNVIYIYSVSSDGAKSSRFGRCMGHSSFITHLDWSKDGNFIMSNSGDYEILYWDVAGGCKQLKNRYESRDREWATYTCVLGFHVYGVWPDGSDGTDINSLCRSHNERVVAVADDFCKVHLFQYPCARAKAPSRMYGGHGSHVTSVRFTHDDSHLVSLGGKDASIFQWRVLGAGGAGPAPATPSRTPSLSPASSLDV
UniProt Q9UNL2: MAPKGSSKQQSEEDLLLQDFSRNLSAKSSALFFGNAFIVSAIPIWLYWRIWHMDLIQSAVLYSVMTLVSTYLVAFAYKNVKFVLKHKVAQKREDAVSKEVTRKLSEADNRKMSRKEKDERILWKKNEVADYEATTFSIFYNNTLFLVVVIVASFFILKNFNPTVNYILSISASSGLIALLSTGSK
UniProt Q6NW29: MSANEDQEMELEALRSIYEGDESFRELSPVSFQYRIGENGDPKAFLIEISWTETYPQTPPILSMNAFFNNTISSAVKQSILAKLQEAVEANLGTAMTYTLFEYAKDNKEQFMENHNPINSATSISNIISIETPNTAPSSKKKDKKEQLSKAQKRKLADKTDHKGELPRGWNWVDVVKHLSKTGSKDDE
UniProt Q8N4C6: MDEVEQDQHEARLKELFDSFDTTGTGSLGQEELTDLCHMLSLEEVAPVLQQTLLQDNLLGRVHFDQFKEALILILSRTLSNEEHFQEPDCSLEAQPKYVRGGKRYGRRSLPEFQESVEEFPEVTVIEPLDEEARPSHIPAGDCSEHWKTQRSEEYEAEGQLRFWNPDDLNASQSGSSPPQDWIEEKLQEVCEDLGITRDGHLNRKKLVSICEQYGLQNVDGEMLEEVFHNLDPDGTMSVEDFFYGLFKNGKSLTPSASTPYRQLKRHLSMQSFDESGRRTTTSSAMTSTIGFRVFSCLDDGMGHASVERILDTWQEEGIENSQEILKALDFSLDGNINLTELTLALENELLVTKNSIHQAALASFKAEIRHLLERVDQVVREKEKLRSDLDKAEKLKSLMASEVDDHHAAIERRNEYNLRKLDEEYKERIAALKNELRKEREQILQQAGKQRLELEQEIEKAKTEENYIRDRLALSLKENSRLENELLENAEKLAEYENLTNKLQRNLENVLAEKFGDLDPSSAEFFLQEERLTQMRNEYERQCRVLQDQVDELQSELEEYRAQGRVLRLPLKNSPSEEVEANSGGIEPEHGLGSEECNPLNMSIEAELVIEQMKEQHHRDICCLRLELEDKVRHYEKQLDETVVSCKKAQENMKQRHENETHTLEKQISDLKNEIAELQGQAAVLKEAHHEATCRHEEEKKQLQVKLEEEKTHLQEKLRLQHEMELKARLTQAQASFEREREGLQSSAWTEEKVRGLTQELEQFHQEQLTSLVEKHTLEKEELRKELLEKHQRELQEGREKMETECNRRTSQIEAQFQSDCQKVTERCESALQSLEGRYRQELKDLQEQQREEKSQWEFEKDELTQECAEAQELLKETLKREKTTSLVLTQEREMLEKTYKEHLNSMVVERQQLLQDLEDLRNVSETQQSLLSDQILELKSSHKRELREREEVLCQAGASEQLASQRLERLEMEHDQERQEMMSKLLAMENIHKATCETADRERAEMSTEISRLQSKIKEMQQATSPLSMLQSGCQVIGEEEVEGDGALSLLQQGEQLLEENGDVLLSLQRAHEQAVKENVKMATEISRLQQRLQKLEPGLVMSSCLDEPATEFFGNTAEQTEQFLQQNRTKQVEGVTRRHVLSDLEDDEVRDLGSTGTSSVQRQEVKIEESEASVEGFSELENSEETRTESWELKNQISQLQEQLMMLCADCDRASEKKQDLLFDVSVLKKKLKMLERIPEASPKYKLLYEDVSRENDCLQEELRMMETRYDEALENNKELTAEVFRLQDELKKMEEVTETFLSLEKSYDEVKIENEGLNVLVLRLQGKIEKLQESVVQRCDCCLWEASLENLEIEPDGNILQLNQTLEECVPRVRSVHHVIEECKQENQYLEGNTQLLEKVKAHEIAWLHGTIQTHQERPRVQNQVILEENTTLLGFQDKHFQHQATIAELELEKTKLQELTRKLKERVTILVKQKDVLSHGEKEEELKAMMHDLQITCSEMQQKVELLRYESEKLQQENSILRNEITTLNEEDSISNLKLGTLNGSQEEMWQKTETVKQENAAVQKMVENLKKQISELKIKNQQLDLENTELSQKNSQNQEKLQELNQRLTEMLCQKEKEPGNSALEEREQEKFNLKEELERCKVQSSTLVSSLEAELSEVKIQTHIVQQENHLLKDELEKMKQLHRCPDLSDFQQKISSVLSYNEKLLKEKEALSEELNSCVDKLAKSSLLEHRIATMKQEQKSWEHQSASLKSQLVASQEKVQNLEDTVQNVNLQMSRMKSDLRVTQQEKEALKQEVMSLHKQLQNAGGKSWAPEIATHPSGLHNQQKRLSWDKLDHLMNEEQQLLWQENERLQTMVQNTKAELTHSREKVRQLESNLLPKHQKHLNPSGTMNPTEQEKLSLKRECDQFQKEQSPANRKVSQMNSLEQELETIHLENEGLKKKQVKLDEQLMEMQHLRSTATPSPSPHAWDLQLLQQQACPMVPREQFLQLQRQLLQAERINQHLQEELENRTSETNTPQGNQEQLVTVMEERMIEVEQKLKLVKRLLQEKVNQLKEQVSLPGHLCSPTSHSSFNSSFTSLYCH
UniProt Q9BWE0: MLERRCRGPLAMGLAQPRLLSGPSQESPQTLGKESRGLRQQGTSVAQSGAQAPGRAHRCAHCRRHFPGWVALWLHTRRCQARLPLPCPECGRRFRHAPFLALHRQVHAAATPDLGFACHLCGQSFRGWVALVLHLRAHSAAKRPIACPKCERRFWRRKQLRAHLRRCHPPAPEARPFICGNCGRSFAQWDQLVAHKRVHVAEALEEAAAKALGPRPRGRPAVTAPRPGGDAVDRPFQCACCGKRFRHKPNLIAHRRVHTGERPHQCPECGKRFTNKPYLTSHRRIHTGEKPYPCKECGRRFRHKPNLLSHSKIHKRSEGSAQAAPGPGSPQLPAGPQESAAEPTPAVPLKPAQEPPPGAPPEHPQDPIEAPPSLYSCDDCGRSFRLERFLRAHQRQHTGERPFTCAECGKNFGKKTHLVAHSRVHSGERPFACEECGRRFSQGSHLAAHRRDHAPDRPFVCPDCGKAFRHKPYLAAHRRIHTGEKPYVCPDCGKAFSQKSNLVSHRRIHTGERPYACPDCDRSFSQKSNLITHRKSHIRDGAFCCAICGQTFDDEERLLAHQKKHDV
UniProt Q86WW8: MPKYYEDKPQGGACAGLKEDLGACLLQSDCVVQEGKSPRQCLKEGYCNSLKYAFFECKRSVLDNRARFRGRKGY
UniProt P62873, whole entry: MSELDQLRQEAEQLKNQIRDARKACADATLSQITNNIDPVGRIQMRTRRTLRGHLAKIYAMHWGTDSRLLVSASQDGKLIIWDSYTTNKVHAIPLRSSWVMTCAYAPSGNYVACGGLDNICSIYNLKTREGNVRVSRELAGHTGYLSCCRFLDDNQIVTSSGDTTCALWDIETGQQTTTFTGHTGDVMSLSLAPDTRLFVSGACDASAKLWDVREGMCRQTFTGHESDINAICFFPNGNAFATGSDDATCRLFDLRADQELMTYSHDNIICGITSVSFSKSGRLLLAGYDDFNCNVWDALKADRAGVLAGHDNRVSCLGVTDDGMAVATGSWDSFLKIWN

Compound: Nc1ncnc2c1ncn2[C@@H]1O[C@H](COP(=O)(O)OP(=O)(O)NP(=O)(O)O)[C@@H](O)[C@H]1O [adenylyl imidodiphosphate]
Assay: NP40-soluble protein abundance relative to vehicle (solubility fold change) (ratio); higher = more soluble protein in presence of AMP-PNP
How it was run: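 Eight concentrations, 0.1 to 10 mM, were tested on Jurkat crude lysate for 10 min at room temperature and then 3 min at 37 °C, in three independent experiments. The lysate was solubilised with 0.8% NP40 and benzonase, ultracentrifuged, and the supernatant TMT-labelled for LC-MS/MS. Each value is the fold change against the detergent-processed vehicle in its own replicate, from vsn-normalised intensities.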

| Target | NP40-soluble protein abundance (concentration: 1mM) | NP40-soluble protein abundance (concentration: 2mM) | NP40-soluble protein abundance (concentration: 4mM) | NP40-soluble protein abundance (concentration: 6mM) | NP40-soluble protein abundance (concentration: 8mM) | NP40-soluble protein abundance (concentration: 10mM) |
| --- | --- | --- | --- | --- | --- | --- |
| D6REA0 and related entries (UniProt O75879) | 0.962 ± 0.026 | 0.9665 ± 0.0091 | 0.968 ± 0.036 | 1.03 ± 0.028 | 0.986 ± 0.038 | 1.003 ± 0.0032 |
| C9JDQ1 and related entries (UniProt Q13724) | 0.979 ± 0.013 | 0.942 ± 0.12 | 1.01 ± 0.039 | 0.968 ± 0.014 | 1 ± 0.05 | 0.965 ± 0.032 |
| E5RGN3 and related entries (UniProt O00244) | 0.961 ± 0.05 | 1.11 ± 0.094 | 0.959 ± 0.09 | 0.934 ± 0.053 | 0.901 ± 0.059 | 0.917 ± 0.034 |
| C9JQV3 and related entries (UniProt Q8N1F8) | 0.971 ± 0.018 | 0.999 ± 0.036 | 1.02 ± 0.016 | 1.01 ± 0.015 | 1.03 ± 0.02 | 1.04 ± 0.034 |
| B4DRN8 and related entries (UniProt Q5W0Z9) | 0.993 ± 0.0064 | 1 ± 0.012 | 0.987 ± 0.067 | 0.966 ± 0.016 | 0.957 ± 0.051 | 0.985 ± 0.048 |
| B5MCF9 and related entries (UniProt O00541) | 1.04 ± 0.011 | 1.02 ± 0.026 | 0.996 ± 0.015 | 0.999 ± 0.019 | 0.965 ± 0.033 | 1 ± 0.021 |
| C9J712 and related entries (UniProt P35080) | 1.01 ± 0.053 | 1.08 ± 0.1 | 1.02 ± 0.093 | 1.16 ± 0.11 | 1.16 ± 0.091 | 1.21 ± 0.066 |
| B4E0Y9 and related entries (UniProt Q9P289) | 0.999 ± 0.019 | 1.03 ± 0.059 | 1.01 ± 0.034 | 1.05 ± 0.036 | 1.01 ± 0.045 | 1.06 ± 0.039 |
| GTPBP10 (UniProt A4D1E9) | 1.02 ± 0.0089 | 1.05 ± 0.044 | 1.05 ± 0.031 | 1.05 ± 0.023 | 1.077 ± 0.0048 | 1.1 ± 0.019 |
| C9JHH7 and related entries (UniProt Q8WUX1) | 0.958 ± 0.025 | 0.9565 ± 0.0061 | 0.998 ± 0.033 | 1.05 ± 0.02 | 1.06 ± 0.058 | 1 ± 0.056 |
| B7WPE2 and related entries (UniProt Q32P44) | 0.997 ± 0.046 | 0.987 ± 0.038 | 1.02 ± 0.053 | 1.02 ± 0.034 | 1.04 ± 0.021 | 1.06 ± 0.053 |
| CCDC85C (UniProt A6NKD9) | 0.9594 ± 0.0012 | 1.0044 ± 0.00019 | 0.953 ± 0.035 | 0.9849 ± 0.007 | 0.9793 ± 0.0043 | 0.9704 ± 0.0054 |
| C9J406 and related entries (UniProt Q16891) | 0.997 ± 0.07 | 1.01 ± 0.034 | 0.938 ± 0.08 | 0.946 ± 0.11 | 0.922 ± 0.083 | 0.939 ± 0.098 |
| B4E0E3 and related entries (UniProt Q9H6X4) | 0.989 ± 0.014 | 1.01 ± 0.033 | 0.989 ± 0.04 | 1.01 ± 0.025 | 0.9708 ± 0.0014 | 0.989 ± 0.023 |
| C9JA28 and related entries (UniProt Q9UNL2) | 1.01 ± 0.033 | 0.99 ± 0.042 | 0.991 ± 0.02 | 1.05 ± 0.016 | 1.04 ± 0.015 | 1.03 ± 0.019 |
| D6R9C7 and related entries (UniProt Q6NW29) | 0.98 ± 0.039 | 0.975 ± 0.034 | 0.97 ± 0.043 | 0.95 ± 0.028 | 0.947 ± 0.043 | 0.907 ± 0.071 |
| UniProt A2RUC4 | 0.9987 ± 0.0083 | 0.9827 ± 0.0017 | 0.969 ± 0.019 | 0.993 ± 0.013 | 0.9737 ± 0.0039 | 0.949 ± 0.015 |
| B7ZBK4 and related entries (UniProt Q92664) | 1.01 ± 0.043 | 1.01 ± 0.022 | 1.02 ± 0.021 | 0.982 ± 0.038 | 1.02 ± 0.085 | 1.02 ± 0.039 |
| D6RAJ6 and related entries (UniProt Q9UKT5) | 1.01 ± 0.035 | 0.996 ± 0.032 | 0.986 ± 0.024 | 0.975 ± 0.026 | 0.983 ± 0.035 | 0.981 ± 0.045 |
| C9J066 and related entries (UniProt Q8N4C6) | 1.01 ± 0.047 | 1.02 ± 0.019 | 0.997 ± 0.031 | 1.07 ± 0.14 | 1.08 ± 0.16 | 1.04 ± 0.12 |
| C9J4Z3 and related entries (UniProt P61513) | 1.02 ± 0.029 | 1.023 ± 0.0041 | 1.03 ± 0.014 | 1.03 ± 0.021 | 0.948 ± 0.019 | 1.03 ± 0.0093 |
| A2RUF3 and related entries (UniProt O75044) | 0.9952 ± 0.0018 | 1.05 ± 0.047 | 1.02 ± 0.035 | 0.986 ± 0.015 | 0.972 ± 0.014 | 1.01 ± 0.03 |
| SMCHD1 (UniProt A6NHR9) | 1 ± 0.013 | 0.948 ± 0.11 | 1.01 ± 0.018 | 1.01 ± 0.019 | 1.03 ± 0.016 | 1.01 ± 0.026 |
| C9JYJ8 and related entries (UniProt Q9BWE0) | 0.991 ± 0.041 | 1.01 ± 0.043 | 1.02 ± 0.032 | 0.996 ± 0.026 | 1.01 ± 0.038 | 1.03 ± 0.06 |
| B4E1Q4 and related entries (UniProt O14730) | 0.976 ± 0.017 | 0.963 ± 0.011 | 0.957 ± 0.0051 | 0.933 ± 0.036 | 0.949 ± 0.048 | 0.929 ± 0.05 |
| B9A057 and related entries (UniProt Q86WW8) | 1.05 ± 0.055 | 1.11 ± 0.09 | 1.11 ± 0.062 | 1.08 ± 0.028 | 1.13 ± 0.038 | 1.13 ± 0.061 |
| B3KVK2 and related entries (UniProt P62873) | 0.978 ± 0.015 | 0.885 ± 0.06 | 0.885 ± 0.032 | 0.9272 ± 0.0078 | 0.9053 ± 0.0052 | 0.8791 ± 0.0035 |
| B4DP61 and related entries (UniProt Q16637+E7EQZ4+B4DP61) | 0.961 ± 0.093 | 1.03 ± 0.064 | 0.93 ± 0.077 | 1 ± 0.11 | 0.95 ± 0.053 | 0.993 ± 0.13 |
| A6PVU7 and related entries (UniProt Q9P2M7) | 1.07 ± 0.019 | 1.1 ± 0.077 | 1.07 ± 0.027 | 1.033 ± 0.0023 | 1.02 ± 0.032 | 1.06 ± 0.04 |
| UniProt A4D161 and related entries | 0.998 ± 0.025 | 1.01 ± 0.019 | 1.03 ± 0.025 | 1.02 ± 0.023 | 1 ± 0.018 | 1 ± 0.039 |

Full records, quoted from the list. Order of values: NP40-soluble protein abundance (concentration: 1mM) | NP40-soluble protein abundance (concentration: 2mM) | NP40-soluble protein abundance (concentration: 4mM) | NP40-soluble protein abundance (concentration: 6mM) | NP40-soluble protein abundance (concentration: 8mM) | NP40-soluble protein abundance (concentration: 10mM)
D6REA0 and related entries (UniProt O75879) is listed with 0.962 ± 0.026 | 0.9665 ± 0.0091 | 0.968 ± 0.036 | 1.03 ± 0.028 | 0.986 ± 0.038 | 1.003 ± 0.0032
CCDC85C (UniProt A6NKD9) is listed with 0.9594 ± 0.0012 | 1.0044 ± 0.00019 | 0.953 ± 0.035 | 0.9849 ± 0.007 | 0.9793 ± 0.0043 | 0.9704 ± 0.0054
